Whole data set: some 1,900 compounds, median “excess over highest single agent (ExcessHSA) synergy score, 6x6 matrix” near -83, cut for the lowest 2% near -370. Some of the results follow.
These compounds were tested on NCI-H446 (assay: excess over highest single agent (ExcessHSA) synergy score, 6x6 matrix; higher = less synergy (more negative = stronger synergy)). Settings: 72 h; CellTiter-Glo viability.

Row | Compound | excess over highest single agent
1 | CC(=O)NC[C@H]1CN(c2ccc(N3CCOCC3)c(F)c2)C(=O)O1 + Cc1sc2c(c1C)C(c1ccc(Cl)cc1)=N[C@@H](CC(=O)OC(C)(C)C)c1nnc(C)n1-2 [NCGC00250412-19] | 21.9
2 | Cc1nccn1CC1CCc2c(c3ccccc3n2C)C1=O (stereo unspecified) + Cc1sc2c(c1C)C(c1ccc(Cl)cc1)=N[C@@H](CC(=O)OC(C)(C)C)c1nnc(C)n1-2 [NCGC00250412-19] | -25.4
3 | COc1ccc2c(c1)c(CC(=O)OCC(=O)O)c(C)n2C(=O)c1ccc(Cl)cc1 + Cc1sc2c(c1C)C(c1ccc(Cl)cc1)=N[C@@H](CC(=O)OC(C)(C)C)c1nnc(C)n1-2 [NCGC00250412-19] | -251
4 | Cc1c2oc3c(C)ccc(C(=O)N[C@@H]4C(=O)N[C@H](C(C)C)C(=O)N5CCC[C@H]5C(=O)N(C)CC(=O)N(C)[C@@H](C(C)C)C(=O)O[C@@H]4C)c3nc-2c(C(=O)N[C@@H]2C(=O)N[C@H](C(C)C)C(=O)N3CCC[C@H]3C(=O)N(C)CC(=O)N(C)[C@@H](C(C)C)C(=O)O[C@@H]2C)c(N)c1=O + Cc1sc2c(c1C)C(c1ccc(Cl)cc1)=N[C@@H](CC(=O)OC(C)(C)C)c1nnc(C)n1-2 [NCGC00250412-19] | -247
5 | CC1(C)OC2=C(C(=O)c3ccccc3C2=O)[C@H](NCc2ccccc2)[C@H]1O + Cc1sc2c(c1C)C(c1ccc(Cl)cc1)=N[C@@H](CC(=O)OC(C)(C)C)c1nnc(C)n1-2 [NCGC00250412-19] | -299
6 | Nc1ncnc2c1ncn2[C@@H]1O[C@H](CO)C[C@H]1O + Cc1sc2c(c1C)C(c1ccc(Cl)cc1)=N[C@@H](CC(=O)OC(C)(C)C)c1nnc(C)n1-2 [NCGC00250412-19] | -100
7 | COc1cc2c(cc1Cc1cccc(Cl)c1F)c(=O)c(C(=O)O)cn2[C@H](CO)C(C)C + Cc1sc2c(c1C)C(c1ccc(Cl)cc1)=N[C@@H](CC(=O)OC(C)(C)C)c1nnc(C)n1-2 [NCGC00250412-19] | -36.4
8 | COc1ccc2cc3[n+](cc2c1OC)CCc1cc2c(cc1-3)OCO2 + Cc1sc2c(c1C)C(c1ccc(Cl)cc1)=N[C@@H](CC(=O)OC(C)(C)C)c1nnc(C)n1-2 [NCGC00250412-19] | 113
9 | Cc1cc(OCCCc2c(C(=O)O)n(Cc3cccnc3)c3c(-c4c(COc5ccc(N6CCN([S+](C)(=O)[O-])CC6)cc5)nn(C)c4C)cccc23)cc(C)c1Cl + Cc1sc2c(c1C)C(c1ccc(Cl)cc1)=N[C@@H](CC(=O)OC(C)(C)C)c1nnc(C)n1-2 [NCGC00250412-19] | -31.2
10 | COc1cc(C(C)C)c2c(c1)S(=O)(=O)N(COc1cc(=O)n3cccc(OCCN4CCCCC4)c3n1)C2=O + Cc1sc2c(c1C)C(c1ccc(Cl)cc1)=N[C@@H](CC(=O)OC(C)(C)C)c1nnc(C)n1-2 [NCGC00250412-19] | -90.3
11 | Nc1ccccc1NC(=O)c1ccc(CNc2nccc(-c3cccnc3)n2)cc1 + Cc1sc2c(c1C)C(c1ccc(Cl)cc1)=N[C@@H](CC(=O)OC(C)(C)C)c1nnc(C)n1-2 [NCGC00250412-19] | -367
12 | CC(C)(C)OC(=O)Nc1ccc(-c2cc(C(=O)NCCCCCCC(=O)NO)no2)cc1 + Cc1sc2c(c1C)C(c1ccc(Cl)cc1)=N[C@@H](CC(=O)OC(C)(C)C)c1nnc(C)n1-2 [NCGC00250412-19] | -161
13 | CN1CC(=O)N=C1NC(=O)Nc1cccc(Cl)c1 + Cc1sc2c(c1C)C(c1ccc(Cl)cc1)=N[C@@H](CC(=O)OC(C)(C)C)c1nnc(C)n1-2 [NCGC00250412-19] | -53.3
14 | Clc1cccc(-n2nnnc2NCc2ccccc2Oc2ccccn2)c1Cl + Cc1sc2c(c1C)C(c1ccc(Cl)cc1)=N[C@@H](CC(=O)OC(C)(C)C)c1nnc(C)n1-2 [NCGC00250412-19] | -103
15 | CC1=C(C(=O)O)N2C(=O)[C@@H](NC(=O)[C@H](N)c3ccccc3)[C@H]2SC1 + Cc1sc2c(c1C)C(c1ccc(Cl)cc1)=N[C@@H](CC(=O)OC(C)(C)C)c1nnc(C)n1-2 [NCGC00250412-19] | -51.4
16 | CC[C@H](C)C(=O)O[C@H]1C[C@H](O)C=C2C=C[C@H](C)[C@H](CC[C@@H](O)C[C@@H](O)CC(=O)O)[C@H]21 + Cc1sc2c(c1C)C(c1ccc(Cl)cc1)=N[C@@H](CC(=O)OC(C)(C)C)c1nnc(C)n1-2 [NCGC00250412-19] | -73.4
17 | NCC1(CC(=O)O)CCCCC1 + Cc1sc2c(c1C)C(c1ccc(Cl)cc1)=N[C@@H](CC(=O)OC(C)(C)C)c1nnc(C)n1-2 [NCGC00250412-19] | -93.6
18 | O=c1cccc2n1C[C@@H]1CNC[C@H]2C1 + Cc1sc2c(c1C)C(c1ccc(Cl)cc1)=N[C@@H](CC(=O)OC(C)(C)C)c1nnc(C)n1-2 [NCGC00250412-19] | 44.7

A stretch from the list above, as a working copy:
Row | Compound | excess over highest single agent
4 | Cc1c2oc3c(C)ccc(C(=O)N[C@@H]4C(=O)N[C@H](C(C)C)C(=O)N5CCC[C@H]5C(=O)N(C)CC(=O)N(C)[C@@H](C(C)C)C(=O)O[C@@H]4C)c3nc-2c(C(=O)N[C@@H]2C(=O)N[C@H](C(C)C)C(=O)N3CCC[C@H]3C(=O)N(C)CC(=O)N(C)[C@@H](C(C)C)C(=O)O[C@@H]2C)c(N)c1=O + Cc1sc2c(c1C)C(c1ccc(Cl)cc1)=N[C@@H](CC(=O)OC(C)(C)C)c1nnc(C)n1-2 [NCGC00250412-19] | -247
5 | CC1(C)OC2=C(C(=O)c3ccccc3C2=O)[C@H](NCc2ccccc2)[C@H]1O + Cc1sc2c(c1C)C(c1ccc(Cl)cc1)=N[C@@H](CC(=O)OC(C)(C)C)c1nnc(C)n1-2 [NCGC00250412-19] | -299
6 | Nc1ncnc2c1ncn2[C@@H]1O[C@H](CO)C[C@H]1O + Cc1sc2c(c1C)C(c1ccc(Cl)cc1)=N[C@@H](CC(=O)OC(C)(C)C)c1nnc(C)n1-2 [NCGC00250412-19] | -100
7 | COc1cc2c(cc1Cc1cccc(Cl)c1F)c(=O)c(C(=O)O)cn2[C@H](CO)C(C)C + Cc1sc2c(c1C)C(c1ccc(Cl)cc1)=N[C@@H](CC(=O)OC(C)(C)C)c1nnc(C)n1-2 [NCGC00250412-19] | -36.4
8 | COc1ccc2cc3[n+](cc2c1OC)CCc1cc2c(cc1-3)OCO2 + Cc1sc2c(c1C)C(c1ccc(Cl)cc1)=N[C@@H](CC(=O)OC(C)(C)C)c1nnc(C)n1-2 [NCGC00250412-19] | 113
9 | Cc1cc(OCCCc2c(C(=O)O)n(Cc3cccnc3)c3c(-c4c(COc5ccc(N6CCN([S+](C)(=O)[O-])CC6)cc5)nn(C)c4C)cccc23)cc(C)c1Cl + Cc1sc2c(c1C)C(c1ccc(Cl)cc1)=N[C@@H](CC(=O)OC(C)(C)C)c1nnc(C)n1-2 [NCGC00250412-19] | -31.2
10 | COc1cc(C(C)C)c2c(c1)S(=O)(=O)N(COc1cc(=O)n3cccc(OCCN4CCCCC4)c3n1)C2=O + Cc1sc2c(c1C)C(c1ccc(Cl)cc1)=N[C@@H](CC(=O)OC(C)(C)C)c1nnc(C)n1-2 [NCGC00250412-19] | -90.3
11 | Nc1ccccc1NC(=O)c1ccc(CNc2nccc(-c3cccnc3)n2)cc1 + Cc1sc2c(c1C)C(c1ccc(Cl)cc1)=N[C@@H](CC(=O)OC(C)(C)C)c1nnc(C)n1-2 [NCGC00250412-19] | -367
12 | CC(C)(C)OC(=O)Nc1ccc(-c2cc(C(=O)NCCCCCCC(=O)NO)no2)cc1 + Cc1sc2c(c1C)C(c1ccc(Cl)cc1)=N[C@@H](CC(=O)OC(C)(C)C)c1nnc(C)n1-2 [NCGC00250412-19] | -161
13 | CN1CC(=O)N=C1NC(=O)Nc1cccc(Cl)c1 + Cc1sc2c(c1C)C(c1ccc(Cl)cc1)=N[C@@H](CC(=O)OC(C)(C)C)c1nnc(C)n1-2 [NCGC00250412-19] | -53.3

More results follow:

Row | Compound | excess over highest single agent
19 | CCOC(=O)N[C@@H]1CC[C@@H]2[C@@H](C1)C[C@H]1C(=O)O[C@H](C)[C@H]1[C@H]2/C=C/c1ccc(-c2cccc(F)c2)cn1 + Cc1sc2c(c1C)C(c1ccc(Cl)cc1)=N[C@@H](CC(=O)OC(C)(C)C)c1nnc(C)n1-2 [NCGC00250412-19] | -16.7
20 | Cc1cc(Nc2cc(CN3CCOCC3)c3nc(C)c(Cc4ccc(Cl)cc4F)n3n2)n[nH]1 + Cc1sc2c(c1C)C(c1ccc(Cl)cc1)=N[C@@H](CC(=O)OC(C)(C)C)c1nnc(C)n1-2 [NCGC00250412-19] | -96.4
21 | Nc1nnc(-c2cccc(Cl)c2Cl)c(N)n1 + Cc1sc2c(c1C)C(c1ccc(Cl)cc1)=N[C@@H](CC(=O)OC(C)(C)C)c1nnc(C)n1-2 [NCGC00250412-19] | 55.7
22 | CC[C@@]1(O)C(=O)OCc2c1cc1n(c2=O)Cc2cc3c(CN(C)C)c(O)ccc3nc2-1 + Cc1sc2c(c1C)C(c1ccc(Cl)cc1)=N[C@@H](CC(=O)OC(C)(C)C)c1nnc(C)n1-2 [NCGC00250412-19] | -475
23 | C[C@@]12OC(=O)[C@]1([C@@H](O)[C@@H]1C=CCCC1)NC(=O)[C@@H]2CCCl + Cc1sc2c(c1C)C(c1ccc(Cl)cc1)=N[C@@H](CC(=O)OC(C)(C)C)c1nnc(C)n1-2 [NCGC00250412-19] | -247
24 | Oc1cc(O)cc(/C=C/c2ccc(O)c(O)c2)c1 + Cc1sc2c(c1C)C(c1ccc(Cl)cc1)=N[C@@H](CC(=O)OC(C)(C)C)c1nnc(C)n1-2 [NCGC00250412-19] | -193
25 | Nc1nc(=O)[nH]cc1F + Cc1sc2c(c1C)C(c1ccc(Cl)cc1)=N[C@@H](CC(=O)OC(C)(C)C)c1nnc(C)n1-2 [NCGC00250412-19] | 45.8
26 | CCN1CCN(c2ccc(Nc3cc(N(C)C(=O)Nc4c(Cl)c(OC)cc(OC)c4Cl)ncn3)cc2)CC1 + Cc1sc2c(c1C)C(c1ccc(Cl)cc1)=N[C@@H](CC(=O)OC(C)(C)C)c1nnc(C)n1-2 [NCGC00250412-19] | -296
27 | NC(=O)c1cnc(-c2ccc(C3(N)CCC3)cc2)c(-c2ccccc2)c1 + Cc1sc2c(c1C)C(c1ccc(Cl)cc1)=N[C@@H](CC(=O)OC(C)(C)C)c1nnc(C)n1-2 [NCGC00250412-19] | -53.9
28 | CC(=O)O[C@]1(C(C)=O)CC[C@H]2[C@@H]3C=C(C)C4=CC(=O)CC[C@]4(C)[C@H]3CC[C@@]21C + Cc1sc2c(c1C)C(c1ccc(Cl)cc1)=N[C@@H](CC(=O)OC(C)(C)C)c1nnc(C)n1-2 [NCGC00250412-19] | 6.7
29 | C=C1[C@H](CO)[C@@H](O)C[C@@H]1n1cnc2c(=O)[nH]c(N)nc21 + Cc1sc2c(c1C)C(c1ccc(Cl)cc1)=N[C@@H](CC(=O)OC(C)(C)C)c1nnc(C)n1-2 [NCGC00250412-19] | -70
30 | COc1ccnc2[nH]cc(C(=O)C(=O)N3CCN(C(=O)c4ccccc4)C[C@H]3C)c12 + Cc1sc2c(c1C)C(c1ccc(Cl)cc1)=N[C@@H](CC(=O)OC(C)(C)C)c1nnc(C)n1-2 [NCGC00250412-19] | 58.1
31 | CO/N=C(\C(=O)N[C@@H]1C(=O)N2C(C(=O)O)=C(CSC(=O)c3ccco3)CS[C@H]12)c1csc(N)n1 + Cc1sc2c(c1C)C(c1ccc(Cl)cc1)=N[C@@H](CC(=O)OC(C)(C)C)c1nnc(C)n1-2 [NCGC00250412-19] | -112
32 | C[C@H](CCC(=O)O)[C@H]1CC[C@H]2[C@@H]3C[C@H](O)[C@@H]4C[C@H](O)CC[C@]4(C)[C@H]3CC[C@]12C + Cc1sc2c(c1C)C(c1ccc(Cl)cc1)=N[C@@H](CC(=O)OC(C)(C)C)c1nnc(C)n1-2 [NCGC00250412-19] | -123
33 | NC(=O)Nc1sc(-c2ccc(F)cc2)cc1C(N)=O + Cc1sc2c(c1C)C(c1ccc(Cl)cc1)=N[C@@H](CC(=O)OC(C)(C)C)c1nnc(C)n1-2 [NCGC00250412-19] | -176
34 | CCN1CCN(C(=O)Cc2ccc(Nc3ncc(F)c(Nc4ccc(C(=O)Nc5ccccc5Cl)cc4)n3)cc2)CC1 + Cc1sc2c(c1C)C(c1ccc(Cl)cc1)=N[C@@H](CC(=O)OC(C)(C)C)c1nnc(C)n1-2 [NCGC00250412-19] | -388
35 | CC(C)(C)OC(=O)N[C@H]1CCCCC/C=C\[C@@H]2C[C@@]2(C(=O)NS(=O)(=O)C2CC2)NC(=O)[C@@H]2C[C@@H](OC(=O)N3Cc4cccc(F)c4C3)CN2C1=O + Cc1sc2c(c1C)C(c1ccc(Cl)cc1)=N[C@@H](CC(=O)OC(C)(C)C)c1nnc(C)n1-2 [NCGC00250412-19] | -43.8
36 | CC1(C)C(=O)N(CCN2CCC(C(=O)c3ccc(F)cc3)CC2)c2ccccc21 + Cc1sc2c(c1C)C(c1ccc(Cl)cc1)=N[C@@H](CC(=O)OC(C)(C)C)c1nnc(C)n1-2 [NCGC00250412-19] | -96.3

From the supplement of paper PMC10077471
